# Measured values: the supplement of paper PMC12823440, “Inhibitors supercharge kinase turnover through native proteolytic circuits” (Nature, 2025)
# Amino acid sequences for entries named in this document (tags omitted). A change or cut given only in a name is not applied to a line headed by its entry.
# UniProt O14965: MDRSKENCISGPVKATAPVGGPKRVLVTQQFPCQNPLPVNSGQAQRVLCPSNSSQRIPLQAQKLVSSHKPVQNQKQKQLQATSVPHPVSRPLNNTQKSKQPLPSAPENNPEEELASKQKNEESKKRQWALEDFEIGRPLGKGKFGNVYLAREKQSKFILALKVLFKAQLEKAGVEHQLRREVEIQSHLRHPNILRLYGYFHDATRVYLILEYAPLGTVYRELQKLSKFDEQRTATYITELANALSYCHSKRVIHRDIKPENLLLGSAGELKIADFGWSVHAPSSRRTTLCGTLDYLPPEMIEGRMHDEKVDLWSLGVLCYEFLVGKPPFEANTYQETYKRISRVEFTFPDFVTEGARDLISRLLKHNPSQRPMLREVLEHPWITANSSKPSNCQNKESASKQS
# UniProt Q9NYA1, whole entry: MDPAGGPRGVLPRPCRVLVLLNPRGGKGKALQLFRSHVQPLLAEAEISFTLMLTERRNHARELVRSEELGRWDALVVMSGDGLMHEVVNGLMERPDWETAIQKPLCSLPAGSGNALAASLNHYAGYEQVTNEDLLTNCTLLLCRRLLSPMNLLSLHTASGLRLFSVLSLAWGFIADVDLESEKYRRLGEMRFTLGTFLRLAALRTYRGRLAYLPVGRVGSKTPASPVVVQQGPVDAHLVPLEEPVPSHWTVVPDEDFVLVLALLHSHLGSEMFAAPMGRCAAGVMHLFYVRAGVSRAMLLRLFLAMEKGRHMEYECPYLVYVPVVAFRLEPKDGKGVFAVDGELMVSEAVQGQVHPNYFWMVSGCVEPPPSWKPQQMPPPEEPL
# UniProt P28482, whole entry: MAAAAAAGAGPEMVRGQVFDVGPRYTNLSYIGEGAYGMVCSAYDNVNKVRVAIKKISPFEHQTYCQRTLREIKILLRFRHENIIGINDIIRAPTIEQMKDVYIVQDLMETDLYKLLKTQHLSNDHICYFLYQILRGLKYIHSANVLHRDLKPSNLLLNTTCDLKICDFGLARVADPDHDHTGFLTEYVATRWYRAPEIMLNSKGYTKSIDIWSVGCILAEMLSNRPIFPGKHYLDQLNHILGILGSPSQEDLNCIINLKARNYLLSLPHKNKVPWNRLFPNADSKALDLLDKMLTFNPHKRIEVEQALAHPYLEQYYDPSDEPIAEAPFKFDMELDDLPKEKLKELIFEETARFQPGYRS
# UniProt Q96GD4, whole entry: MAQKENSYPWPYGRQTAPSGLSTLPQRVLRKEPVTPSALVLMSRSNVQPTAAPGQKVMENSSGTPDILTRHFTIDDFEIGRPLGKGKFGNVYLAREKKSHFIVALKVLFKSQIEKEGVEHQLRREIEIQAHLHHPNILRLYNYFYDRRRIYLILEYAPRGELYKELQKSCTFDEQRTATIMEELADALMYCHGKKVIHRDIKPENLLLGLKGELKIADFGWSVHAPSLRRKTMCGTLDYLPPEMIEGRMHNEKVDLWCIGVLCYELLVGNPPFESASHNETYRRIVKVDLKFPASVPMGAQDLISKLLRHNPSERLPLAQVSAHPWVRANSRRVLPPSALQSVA
# This is one part of the list. The calls rarely recur for the same compound in another form.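 Kinases were expressed as nanoluciferase fusions in K562 cells and luminescence was read every 4 h between 2 and 18 h as percent of control, DMSO set to 100% and a positive control to 0%. A time point counts as decreased when the signal drops significantly (2 sigma). The hit call is the authors' own, does not follow from the count of time points alone, and its rule is not shown.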
# Experiments:
# Assay in all cases: number of time points (of 5) at which kinase-Nluc abundance scored as decreased, DMSO-normalised (count); higher = more persistent destabilization
# Umbralisib = compound: CC(C)Oc1ccc(-c2nn([C@@H](C)c3oc4ccc(F)cc4c(=O)c3-c3cccc(F)c3)c3ncnc(N)c23)cc1F [Umbralisib]; conditions: 2.5 µM; K562; 2-18 h
# Bucladesine (calcium) = compound: CCCC(=O)Nc1ncnc2c1ncn2[C@@H]1O[C@@H]2COP(=O)(O)O[C@H]2[C@H]1OC(=O)CCC [Bucladesine (calcium)]; conditions: 10 µM; K562; 2-18 h
# Bucladesine (sodium) = compound: CCCC(=O)Nc1ncnc2c1ncn2[C@@H]1O[C@@H]2COP(=O)(O)O[C@H]2[C@H]1OC(=O)CCC [Bucladesine (sodium)]; conditions: 10 µM; K562; 2-18 h
# [1] = compound: CCCCCCCCc1ccc(CCC(N)(CO)CO)cc1 [Fingolimod (hydrochloride)]; conditions: 2.5 µM; K562; 2-18 h
# Fingolimod = compound: CCCCCCCCc1ccc(CCC(N)(CO)CO)cc1 [Fingolimod]; conditions: 2.5 µM; K562; 2-18 h
# [2] = compound: CCN(CC)CC(=O)Nc1c(C)cccc1C [Lidocaine (hydrochloride)]; conditions: 10 µM; K562; 2-18 h
# Lidocaine = compound: CCN(CC)CC(=O)Nc1c(C)cccc1C [Lidocaine]; conditions: 10 µM; K562; 2-18 h
# [3] = compound: CCN(CC)Cc1ccc(OC)c(-c2cc3c(-c4ccc(C(=O)O)c(C(C)C)c4)ccnc3[nH]2)c1; conditions: K562, 2-18 h
# Baricitinib (phosphate) = compound: CCS(=O)(=O)N1CC(CC#N)(n2cc(-c3ncnc4[nH]ccc34)cn2)C1 [Baricitinib (phosphate)]; conditions: 10 µM; K562; 2-18 h
# Baricitinib = compound: CCS(=O)(=O)N1CC(CC#N)(n2cc(-c3ncnc4[nH]ccc34)cn2)C1 [Baricitinib]; conditions: 10 µM; K562; 2-18 h
# [4] = compound: CCS(=O)(=O)N1CCN(c2ccc(Nc3ncc(C(N)=O)c(NC4CC4)n3)cc2)CC1 [Cerdulatinib (hydrochloride)]; conditions: 10 µM; K562; 2-18 h
# Cerdulatinib = compound: CCS(=O)(=O)N1CCN(c2ccc(Nc3ncc(C(N)=O)c(NC4CC4)n3)cc2)CC1 [Cerdulatinib]; conditions: 10 µM; K562; 2-18 h
# [5] = compound: CCc1nc(C(N)=O)c(Nc2ccc(N3CCC(N4CCN(C)CC4)CC3)c(OC)c2)nc1NC1CCOCC1 [Gilteritinib hemifumarate]; conditions: 2 µM; K562; 2-18 h
# Gilteritinib = compound: CCc1nc(C(N)=O)c(Nc2ccc(N3CCC(N4CCN(C)CC4)CC3)c(OC)c2)nc1NC1CCOCC1 [Gilteritinib]; conditions: 2 µM; K562; 2-18 h
# [6] = compound: CN(C)C(=N)NC(=N)N [Metformin (hydrochloride)]; conditions: 10 µM; K562; 2-18 h
# Metformin = compound: CN(C)C(=N)NC(=N)N [Metformin]; conditions: 10 µM; K562; 2-18 h
# Ribociclib hydrochloride = compound: CN(C)C(=O)c1cc2cnc(Nc3ccc(N4CCNCC4)cn3)nc2n1C1CCCC1 [Ribociclib hydrochloride]; conditions: 2.5 µM; K562; 2-18 h
# [7] = compound: CN(C)C(=O)c1cc2cnc(Nc3ccc(N4CCNCC4)cn3)nc2n1C1CCCC1 [Ribociclib succinate hydrate]; conditions: 2.5 µM; K562; 2-18 h
# Ribociclib succinate = compound: CN(C)C(=O)c1cc2cnc(Nc3ccc(N4CCNCC4)cn3)nc2n1C1CCCC1 [Ribociclib succinate]; conditions: 10 µM; K562; 2-18 h
# Ribociclib = compound: CN(C)C(=O)c1cc2cnc(Nc3ccc(N4CCNCC4)cn3)nc2n1C1CCCC1 [Ribociclib]; conditions: 10 µM; K562; 2-18 h
target,measurement,setting,value
AURKA (UniProt O14965),number of time points,Umbralisib,0
same,number of time points,Bucladesine (calcium),0
same,number of time points,Bucladesine (sodium),0
same,number of time points,[1],2
same,number of time points,Fingolimod,0
same,number of time points,[2],0
same,number of time points,Lidocaine,0
same,number of time points,[3]; 2.5 µM,0
same,number of time points,[3]; 10 µM,2
same,number of time points,Baricitinib (phosphate),0
same,number of time points,Baricitinib,0
same,number of time points,[4],1
same,number of time points,Cerdulatinib,0
same,number of time points,[5],0
same,number of time points,Gilteritinib,0
same,number of time points,[6],0
same,number of time points,Metformin,0
same,number of time points,Ribociclib hydrochloride,0
same,number of time points,[7],0
same,number of time points,Ribociclib succinate,0
same,number of time points,Ribociclib,0
MAP2K2 (UniProt P36507),number of time points,Umbralisib,0
same,number of time points,Bucladesine (calcium),0
same,number of time points,Bucladesine (sodium),0
same,number of time points,[1],0
same,number of time points,Fingolimod,0
same,number of time points,[2],0
same,number of time points,Lidocaine,0
same,number of time points,[3]; 2.5 µM,0
same,number of time points,[3]; 10 µM,0
same,number of time points,Baricitinib (phosphate),0
same,number of time points,Baricitinib,0
same,number of time points,[4],0
same,number of time points,Cerdulatinib,0
same,number of time points,[5],0
same,number of time points,Gilteritinib,0
same,number of time points,[6],0
same,number of time points,Metformin,0
same,number of time points,Ribociclib hydrochloride,0
same,number of time points,[7],0
same,number of time points,Ribociclib succinate,0
same,number of time points,Ribociclib,0
SPHK1 (UniProt Q9NYA1),number of time points,Umbralisib,0
same,number of time points,Bucladesine (calcium),0
same,number of time points,Bucladesine (sodium),0
same,number of time points,[1],0
same,number of time points,Fingolimod,3
same,number of time points,[2],0
same,number of time points,Lidocaine,0
same,number of time points,[3]; 2.5 µM,0
same,number of time points,[3]; 10 µM,0
same,number of time points,Baricitinib (phosphate),0
same,number of time points,Baricitinib,0
same,number of time points,[4],0
same,number of time points,Cerdulatinib,0
same,number of time points,[5],0
same,number of time points,Gilteritinib,0
same,number of time points,[6],0
same,number of time points,Metformin,0
same,number of time points,Ribociclib hydrochloride,0
same,number of time points,[7],0
same,number of time points,Ribociclib succinate,0
same,number of time points,Ribociclib,0
MAPK1 (UniProt P28482),number of time points,Umbralisib,0
same,number of time points,Bucladesine (calcium),0
same,number of time points,Bucladesine (sodium),0
same,number of time points,[1],0
same,number of time points,Fingolimod,0
same,number of time points,[2],0
same,number of time points,Lidocaine,0
same,number of time points,[3]; 2.5 µM,0
same,number of time points,[3]; 10 µM,0
same,number of time points,Baricitinib (phosphate),0
same,number of time points,Baricitinib,0
same,number of time points,[4],0
same,number of time points,Cerdulatinib,0
same,number of time points,[5],0
same,number of time points,Gilteritinib,0
same,number of time points,[6],0
same,number of time points,Metformin,0
same,number of time points,Ribociclib hydrochloride,0
same,number of time points,[7],0
same,number of time points,Ribociclib succinate,0
same,number of time points,Ribociclib,0
AURKB (UniProt Q96GD4),number of time points,Umbralisib,0
same,number of time points,Bucladesine (calcium),0
same,number of time points,Bucladesine (sodium),0
same,number of time points,[1],0
same,number of time points,Fingolimod,0
same,number of time points,[2],0
same,number of time points,Lidocaine,0
same,number of time points,[3]; 2.5 µM,0
same,number of time points,[3]; 10 µM,0
same,number of time points,Baricitinib (phosphate),0
same,number of time points,Baricitinib,0
same,number of time points,[4],3
same,number of time points,Cerdulatinib,0
same,number of time points,[5],0
same,number of time points,Gilteritinib,0
same,number of time points,[6],0
same,number of time points,Metformin,0
same,number of time points,Ribociclib hydrochloride,0
same,number of time points,[7],0
same,number of time points,Ribociclib succinate,0
same,number of time points,Ribociclib,0
EGFR_G719S (UniProt P00533),number of time points,Umbralisib,0
same,number of time points,Bucladesine (calcium),0
same,number of time points,Bucladesine (sodium),0
same,number of time points,[1],0
same,number of time points,Fingolimod,0
same,number of time points,[2],0
same,number of time points,Lidocaine,0
same,number of time points,[3]; 2.5 µM,0
same,number of time points,[3]; 10 µM,0
same,number of time points,Baricitinib (phosphate),0
same,number of time points,Baricitinib,0
same,number of time points,[4],2
same,number of time points,Cerdulatinib,0
same,number of time points,[5],0
same,number of time points,Gilteritinib,0
same,number of time points,[6],0
same,number of time points,Metformin,0
same,number of time points,Ribociclib hydrochloride,0
same,number of time points,[7],0
same,number of time points,Ribociclib succinate,0
same,number of time points,Ribociclib,0

# An excerpt of these results, with bars between the fields.
target | measurement | setting | value
MAPK1 (UniProt P28482) | number of time points | Gilteritinib | 0
same | number of time points | [6] | 0
same | number of time points | Metformin | 0
same | number of time points | Ribociclib hydrochloride | 0
same | number of time points | [7] | 0
same | number of time points | Ribociclib succinate | 0
same | number of time points | Ribociclib | 0
AURKB (UniProt Q96GD4) | number of time points | Umbralisib | 0
same | number of time points | Bucladesine (calcium) | 0
same | number of time points | Bucladesine (sodium) | 0
same | number of time points | [1] | 0
same | number of time points | Fingolimod | 0
same | number of time points | [2] | 0
same | number of time points | Lidocaine | 0
same | number of time points | [3]; 2.5 µM | 0
same | number of time points | [3]; 10 µM | 0
same | number of time points | Baricitinib (phosphate) | 0
same | number of time points | Baricitinib | 0
same | number of time points | [4] | 3
same | number of time points | Cerdulatinib | 0
same | number of time points | [5] | 0
same | number of time points | Gilteritinib | 0
same | number of time points | [6] | 0
same | number of time points | Metformin | 0
same | number of time points | Ribociclib hydrochloride | 0
same | number of time points | [7] | 0
same | number of time points | Ribociclib succinate | 0
same | number of time points | Ribociclib | 0
EGFR_G719S (UniProt P00533) | number of time points | Umbralisib | 0
same | number of time points | Bucladesine (calcium) | 0
same | number of time points | Bucladesine (sodium) | 0
same | number of time points | [1] | 0
same | number of time points | Fingolimod | 0
same | number of time points | [2] | 0
same | number of time points | Lidocaine | 0
same | number of time points | [3]; 2.5 µM | 0
same | number of time points | [3]; 10 µM | 0
same | number of time points | Baricitinib (phosphate) | 0
